This is an account of results in article PMC3060119.

Protein sequences, listed by entry. Tags and fused reporters are not part of them. Lines headed by an entry give the natural chain unless they say otherwise; changes in a name come on top.
UniProt P05205: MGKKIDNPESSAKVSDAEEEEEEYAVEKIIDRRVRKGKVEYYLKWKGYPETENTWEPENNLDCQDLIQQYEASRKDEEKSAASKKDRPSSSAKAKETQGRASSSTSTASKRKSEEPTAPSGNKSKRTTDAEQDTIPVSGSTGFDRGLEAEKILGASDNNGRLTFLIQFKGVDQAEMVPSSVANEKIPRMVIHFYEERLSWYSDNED
UniProt Q9VR09: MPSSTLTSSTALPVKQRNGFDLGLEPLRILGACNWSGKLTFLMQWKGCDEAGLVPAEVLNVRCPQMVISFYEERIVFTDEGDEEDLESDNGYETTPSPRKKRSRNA

Results are given in words; binding and its absence hold for the method and conditions named. Binding calls can cover weak binding; strength is not graded here.

Assay [1] deals with D. melanogaster HP1, full length, yeast two-hybrid fusion (D. melanogaster) (UniProt P05205). The assay is described as follows: two-hybrid; yeast two-hybrid (pGADT7-AD and pGBKT7-DNA-BD); activation of HIS3, growth on CM-trp-leu-his.
In assay [2] the target is D. melanogaster HP6 (Umbrea), yeast two-hybrid fusion (D. melanogaster) (UniProt Q9VR09). The assay is described as above.

With “D. pseudoobscura LHR, yeast two-hybrid fusion (from UniProt A0A6I8UT92)”, the binding entry in assay [1] and in assay [2] was “binds” throughout.
